{
  "source": "patent US7112318B2",
  "about": "“Non-invasive diagnostic imaging technology for mitochondria dysfunction using radiolabeled lipophilic salts” (The Johns Hopkins University, priority 2002, dated 2006)",
  "system": "myocardium",
  "assay": "F-18-FBnTP uptake kinetics in the myocardium (dog PET)",
  "assay_type": "in vivo, Mongrel dogs",
  "settings": "60–85 min post-injection",
  "procedure": "Methods: Mongrel dogs (BW=35 kg) were injected with 3–4 mCi of F-18-FBnTP. Images were acquired on a GE 4096+ scanner (15 slices, 6.5 mm slice thickness). PET scans of increasing duration (15 sec to 20 min) were acquired over a total time of 85 min post-injection. Arterial blood samples (0.5 ml in volume) were collected every few seconds for the first 3 minutes and at gradually increasing intervals (1 to 10 min) for the remaining time of the imaging study. The vascular and myocardial kinetics of F-18-FBnTP was analyzed using the ROI method.",
  "note": "At least one compound was matched to its structure with a doubt left.",
  "data": [
    {"smiles": "[18F]c1ccc(C[P+](c2ccccc2)(c2ccccc2)c2ccccc2)cc1", "note": "[Example F-18-FBnTP, F-18-fluorobenzyl triphenyl phosphonium]", "values": [
      {"measurement": "ratio of myocardium to atrium", "result": "> 15:1"},
      {"measurement": "ratio of myocardium to lung", "result": "> 15:1"}
    ]}
  ]
}
